No constants are given. Whether binding was seen depends on the method and setting. Binding seen in cells or lysates may run through a third protein. Some results given as binding are weak or reduced against the parent protein; the word gives no strength. For part of these data: Where a sequence is shown, tags or fusion partners need not be part of it.
What was measured:
HA-Smurf1 = HA-Smurf1 (UniProt Q9HCE7); experiment: co-IP; HEK293T co-transfected with tagged NADK (full length or truncation) and Smurf1; lysed 36 h after transfection in IP lysis buffer (50 mM Tris-HCl pH 8.0, 150 mM NaCl, 1% NP-40); Flag-beads or HA-beads 3 h at 4 °C; washed in TBS; western blot
[1] = target: endogenous Smurf1 (human (endogenous in A549)) (UniProt Q9HCE7); experiment: co-IP; endogenous proteins in A549 lysate (IP lysis buffer); 2 ug NADK antibody or 2 ug Smurf1 antibody overnight at 4 °C, Protein A/G beads 2 h; washed in TBS; western blot

The chains behind the UniProt entries cited, without tags or fusion partners.
UniProt Q9HCE7: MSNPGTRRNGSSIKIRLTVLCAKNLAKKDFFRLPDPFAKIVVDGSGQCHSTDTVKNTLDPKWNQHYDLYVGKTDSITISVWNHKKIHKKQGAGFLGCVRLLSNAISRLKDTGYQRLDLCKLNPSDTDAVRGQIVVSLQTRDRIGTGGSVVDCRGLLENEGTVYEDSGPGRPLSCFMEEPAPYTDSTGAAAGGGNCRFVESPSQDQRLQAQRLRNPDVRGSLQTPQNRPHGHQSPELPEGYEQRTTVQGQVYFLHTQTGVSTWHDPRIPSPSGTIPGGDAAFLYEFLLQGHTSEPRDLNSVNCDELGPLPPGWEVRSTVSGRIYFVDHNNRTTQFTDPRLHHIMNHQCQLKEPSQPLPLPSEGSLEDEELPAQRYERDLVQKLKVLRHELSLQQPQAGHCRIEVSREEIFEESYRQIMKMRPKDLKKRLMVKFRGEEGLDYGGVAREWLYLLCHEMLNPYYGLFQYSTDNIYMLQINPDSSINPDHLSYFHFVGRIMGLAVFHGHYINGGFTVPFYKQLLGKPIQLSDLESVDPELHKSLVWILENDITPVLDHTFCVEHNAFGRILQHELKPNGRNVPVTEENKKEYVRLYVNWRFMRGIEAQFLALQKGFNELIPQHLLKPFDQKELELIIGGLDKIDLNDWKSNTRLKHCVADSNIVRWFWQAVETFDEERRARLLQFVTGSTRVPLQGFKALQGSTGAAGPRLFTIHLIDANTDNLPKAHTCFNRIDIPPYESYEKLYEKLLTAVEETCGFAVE

B1: Flag-NADK (nicotinamide adenine dinucleotide kinase) (enzyme, UniProt O95544 1-446)
chain: MEMEQEKMTMNKELSPDAAAYCCSACHGDETWSYNHPIRGRAKSRSLSASPALGSTKEFRRTRSLHGPCPVTTFGPKACVLQNPQTIMHIQDPASQRLTWNKSPKSVLVIKKMRDASLLQPFKELCTHLMEENMIVYVEKKVLEDPAIASDESFGAVKKKFCTFREDYDDISNQIDFIICLGGDGTLLYASSLFQGSVPPVMAFHLGSLGFLTPFSFENFQSQVTQVIEGNAAVVLRSRLKVRVVKELRGKKTAVHNGLGENGSQAAGLDMDVGKQAMQYQVLNEVVIDRGPSSYLSNVDVYLDGHLITTVQGDGVIVSTPTGSTAYAAAAGASMIHPNVPAIMITPICPHSLSFRPIVVPAGVELKIMLSPEARNTAWVSFDGRKRQEIRHGDSISITTSCYPLPSICVRDPVSDWFESLAQCLHWNVRKKQAHFEEEEEEEEEG
**Q.** How did the binding (HA-Smurf1) turn out when B1 was run?
**A.** binds

B2: endogenous NADK (enzyme, UniProt O95544 1-446)
chain: B1 chain
**Q.** With B2 as the binder, how does the binding [1] read?
**A.** binds

B3: NADK TD1 (1-108, kinase-inhibiting domain) (domain or fragment, UniProt O95544 1-108)
chain: MEMEQEKMTMNKELSPDAAAYCCSACHGDETWSYNHPIRGRAKSRSLSASPALGSTKEFRRTRSLHGPCPVTTFGPKACVLQNPQTIMHIQDPASQRLTWNKSPKSVL
**Q.** How did the binding (HA-Smurf1) turn out when B3 was run?
**A.** binds

From PMC10321276
